{"source": "the supplement of paper PMC8728848", "test_in_all_cases": "glycan array binding signal (z-score within array); higher = stronger binding", "conditions_in_all_cases": "glycan notation: IUPAC condensed, linker removed", "key": {"[1]": {"target": "Fuc(a1-2)Gal(b1-4)GlcNAc(b1-3)Gal(b1-4)GlcNAc(b1-2)Man(a1-3)[Fuc(a1-2)Gal(b1-4)GlcNAc(b1-3)Gal(b1-4)GlcNAc(b1-2)Man(a1-6)]Man(b1-4)GlcNAc(b1-4)GlcNAc", "procedure,_shortened": "(§1)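 From the Consortium for Functional Glycomics database, 3228 arrays were curated, keeping only those whose protein sequence was available. Binding is given as a within-array Z-score averaged across arrays sharing a protein sequence and across linkers. Negative Z-scores can be read as non-binding.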"}, "[2]": {"target": "Fuc(a1-2)Gal(b1-4)GlcNAc(b1-3)Gal(b1-4)GlcNAc(b1-3)Gal(b1-4)GlcNAc", "procedure,_shortened": "as §1"}, "[3]": {"target": "Fuc(a1-2)Gal(b1-4)GlcNAc(b1-3)GalNAc", "procedure,_shortened": "as §1"}, "[4]": {"target": "Fuc(a1-2)Gal(b1-4)GlcNAc(b1-3)[Fuc(a1-2)Gal(b1-4)GlcNAc(b1-6)]GalNAc", "procedure,_shortened": "as §1"}, "[5]": {"target": "Fuc(a1-2)Gal(b1-4)GlcNAc(b1-3)[Fuc(a1-3)[Gal(b1-4)]GlcNAc(b1-6)]Gal(b1-4)Glc", "procedure,_shortened": "as §1"}, "[6]": {"target": "Fuc(a1-2)Gal(b1-4)GlcNAc(b1-6)GalNAc", "procedure,_shortened": "as §1"}, "[7]": {"target": "Fuc(a1-2)Gal(b1-4)GlcNAc6S", "procedure,_shortened": "as §1"}, "[8]": {"target": "Fuc(a1-2)Gal(b1-4)[Fuc(a1-3)]GlcNAc", "procedure,_shortened": "as §1"}, "[9]": {"target": "Fuc(a1-2)Gal(b1-4)[Fuc(a1-3)]GlcNAc(b1-2)Man(a1-3)[Fuc(a1-2)Gal(b1-4)[Fuc(a1-3)]GlcNAc(b1-2)Man(a1-6)]Man(b1-4)GlcNAc(b1-4)[Fuc(a1-6)]GlcNAc", "procedure,_shortened": "as §1"}, "[10]": {"target": "Fuc(a1-2)Gal(b1-4)[Fuc(a1-3)]GlcNAc(b1-2)[Fuc(a1-2)Gal(b1-4)[Fuc(a1-3)]GlcNAc(b1-4)]Man(a1-3)[Fuc(a1-2)Gal(b1-4)[Fuc(a1-3)]GlcNAc(b1-2)Man(a1-6)]Man(b1-4)GlcNAc(b1-4)GlcNAc", "procedure,_shortened": "as §1"}, "[11]": {"target": "Fuc(a1-2)Gal(b1-4)[Fuc(a1-3)]GlcNAc(b1-3)Gal(b1-4)[Fuc(a1-3)]GlcNAc", "procedure,_shortened": "as §1"}, "[12]": {"target": "Fuc(a1-2)Gal(b1-4)[Fuc(a1-3)]GlcNAc(b1-3)Gal(b1-4)[Fuc(a1-3)]GlcNAc(b1-3)Gal(b1-4)[Fuc(a1-3)]GlcNAc", "procedure,_shortened": "as §1"}, "[13]": {"target": "Fuc(a1-2)Gal(b1-4)[Fuc(a1-3)]GlcNAc(b1-3)GalNAc", "procedure,_shortened": "as §1"}, "[14]": {"target": "Fuc(a1-2)Gal(b1-4)[Fuc(a1-3)]GlcNAc(b1-3)[Neu5Ac(a2-6)Gal(b1-4)GlcNAc(b1-6)]Gal(b1-4)Glc", "procedure,_shortened": "as §1"}, "[15]": {"target": "Fuc(a1-2)Gal3S(b1-4)GlcNAc", "procedure,_shortened": "as §1"}, "[16]": {"target": "Fuc(a1-2)Gal6S(b1-3)GlcNAc", "procedure,_shortened": "as §1"}, "[17]": {"target": "Fuc(a1-2)Gal6S(b1-3)GlcNAc6S", "procedure,_shortened": "as §1"}, "[18]": {"target": "Fuc(a1-2)Gal6S(b1-4)Glc", "procedure,_shortened": "as §1"}, "[19]": {"target": "Fuc(a1-2)Gal6S(b1-4)Glc6S", "procedure,_shortened": "as §1"}, "[20]": {"target": "Fuc(a1-2)[Gal(a1-3)]Gal", "procedure,_shortened": "as §1"}, "[21]": {"target": "Fuc(a1-2)[Gal(a1-3)]Gal(b1-3)GalNAc", "procedure,_shortened": "as §1"}, "[22]": {"target": "Fuc(a1-2)[Gal(a1-3)]Gal(b1-3)GalNAc(b1-3)Gal(a1-4)Gal(b1-4)Glc", "procedure,_shortened": "as §1"}, "[23]": {"target": "Fuc(a1-2)[Gal(a1-3)]Gal(b1-3)GlcNAc", "procedure,_shortened": "as §1"}, "[24]": {"target": "Fuc(a1-2)[Gal(a1-3)]Gal(b1-3)GlcNAc(b1-2)Man(a1-3)[Fuc(a1-2)[Gal(a1-3)]Gal(b1-3)GlcNAc(b1-2)Man(a1-6)]Man(b1-4)GlcNAc(b1-4)GlcNAc", "procedure,_shortened": "as §1"}, "[25]": {"target": "Fuc(a1-2)[Gal(a1-3)]Gal(b1-3)GlcNAc(b1-2)Man(a1-3)[Fuc(a1-2)[Gal(a1-3)]Gal(b1-3)GlcNAc(b1-2)Man(a1-6)]Man(b1-4)GlcNAc(b1-4)[Fuc(a1-6)]GlcNAc", "procedure,_shortened": "as §1"}, "[26]": {"target": "Fuc(a1-2)[Gal(a1-3)]Gal(b1-3)GlcNAc(b1-3)GalNAc", "procedure,_shortened": "as §1"}, "[27]": {"target": "Fuc(a1-2)[Gal(a1-3)]Gal(b1-3)GlcNAc(b1-6)GalNAc", "procedure,_shortened": "as §1"}, "[28]": {"target": "Fuc(a1-2)[Gal(a1-3)]Gal(b1-4)Glc", "procedure,_shortened": "as §1"}, "[29]": {"target": "Fuc(a1-2)[Gal(a1-3)]Gal(b1-4)GlcNAc", "procedure,_shortened": "as §1"}, "[30]": {"target": "Fuc(a1-2)[Gal(a1-3)]Gal(b1-4)GlcNAc(b1-2)Man", "procedure,_shortened": "as §1"}}, "note": "Some of the results follow."}
{"binder": "CD4 (Rattus norvegicus), P05540 (protein) MCRGFSFRHLLPLLLLQLSKLLVVTQGSTSITAYKSEGESAEFSFPLNLGEESLQGELRWKAEKAPSSQSWITFSLKNQKVSVQKSTSNPKFQLSETLPLTLQIPQVSLQFAGSGNLTLTLDRGILYQEVNLVVMKVTQPDSNTLTCEVMGPTSPKMRLILKQENQEARVSRQEKVIQVQAPEAGVWQCLLSEGEEVKMDSKIQVLSKGLNSGGGSGGGTGGGDLAPQMLRELQETNAALQDVRELLRQQVKEITFLKNTVMECDACGLDRNLPPLAPLGPHPETLVKVKDAEDQLGARVGYIELDLNSGKILESFRPEERFPMMSTFKVLLCGAVLSRIDAGQEQLGRRIHYSQNDLVEYSPVTEKHLTDGMTVRELCSAAITMSDNTAANLLLTTIGGPKELTAFLHNMGDHVTRLDRWEPELNEAIPNDERDTTMPVAMATTLRKLLTGELLTLASRQQLIDWMEADKVAGPLLRSALPAGWFIADKSGAGERGSRGIIAALGPDGKPSRIVVIYTTGSQATMDERNRQIAEIGASLIKHW", "values": [{"measurement": "glycan array binding signal (z-score)", "setting": "[1]", "result": 0.697}, {"measurement": "glycan array binding signal (z-score)", "setting": "[2]", "result": -0.758}, {"measurement": "glycan array binding signal (z-score)", "setting": "[3]", "result": 0.968}, {"measurement": "glycan array binding signal (z-score)", "setting": "[4]", "result": -0.242}, {"measurement": "glycan array binding signal (z-score)", "setting": "[5]", "result": -0.381}, {"measurement": "glycan array binding signal (z-score)", "setting": "[6]", "result": -0.816}, {"measurement": "glycan array binding signal (z-score)", "setting": "[7]", "result": 0.201}, {"measurement": "glycan array binding signal (z-score)", "setting": "[8]", "result": -0.219}, {"measurement": "glycan array binding signal (z-score)", "setting": "[9]", "result": -0.032}, {"measurement": "glycan array binding signal (z-score)", "setting": "[10]", "result": -0.141}, {"measurement": "glycan array binding signal (z-score)", "setting": "[11]", "result": -0.822}, {"measurement": "glycan array binding signal (z-score)", "setting": "[12]", "result": 1.16}, {"measurement": "glycan array binding signal (z-score)", "setting": "[13]", "result": 0.857}, {"measurement": "glycan array binding signal (z-score)", "setting": "[14]", "result": 0.682}, {"measurement": "glycan array binding signal (z-score)", "setting": "[15]", "result": 0.124}, {"measurement": "glycan array binding signal (z-score)", "setting": "[16]", "result": -1.13}, {"measurement": "glycan array binding signal (z-score)", "setting": "[17]", "result": -0.318}, {"measurement": "glycan array binding signal (z-score)", "setting": "[18]", "result": 2.49}, {"measurement": "glycan array binding signal (z-score)", "setting": "[19]", "result": -0.572}, {"measurement": "glycan array binding signal (z-score)", "setting": "[20]", "result": -1.05}, {"measurement": "glycan array binding signal (z-score)", "setting": "[21]", "result": 0.079}, {"measurement": "glycan array binding signal (z-score)", "setting": "[22]", "result": -0.166}, {"measurement": "glycan array binding signal (z-score)", "setting": "[23]", "result": 0.175}, {"measurement": "glycan array binding signal (z-score)", "setting": "[24]", "result": 0.253}, {"measurement": "glycan array binding signal (z-score)", "setting": "[25]", "result": -1.13}, {"measurement": "glycan array binding signal (z-score)", "setting": "[26]", "result": 1.08}, {"measurement": "glycan array binding signal (z-score)", "setting": "[27]", "result": 0.261}, {"measurement": "glycan array binding signal (z-score)", "setting": "[28]", "result": -1.27}, {"measurement": "glycan array binding signal (z-score)", "setting": "[29]", "result": -1.39}, {"measurement": "glycan array binding signal (z-score)", "setting": "[30]", "result": -1.08}]}
